# In patent US8921420B2, “Method for preparing dicaffeoylquinic acids and use thereof in combating aphids” (Institut National de la Recherche Agronomique, priority 2008, dated 2014):
# Some of these results come from one statement about several compounds together. At least one structure is not confirmed: it was looked up by name or label, or the drawing left a doubt.
# Test system: Myzus persicae
# Assay: Toxicity test on larval development on Ap3 feeding medium (larval mortality, weight of wingless adults)
# Assay type: in vivo
# Details: FIG. 19; 0.5 mM dose, on the 3rd day
# Protocol: The goal is to quantify the toxic effect of 3,5-diCQ on the aphid throughout its larval development, namely 8 to 10 days for Myzus persicae at 19° C. The molecule is added at various concentrations to the Ap3 feeding medium.
# The medium ([…]) is poured between two UV-sterilized Parafilm® membranes and drawn onto a cylindrical support made of PVC (h=1.5 cm, d=2 cm), under sterile conditions. On Day D0, 20 neonate larvae are placed inside the cylinder, which is then turned over and pressed onto a square of Parafilm®. The dishes are placed under dimmed light (16 hr day/8 hr night) and in an enclosure set at 19° C. The fixation percentage is recorded after 1 hour as a short-term phagostimulation indicator and in order to verify that no anomaly had occurred when the aphids were placed inside the cylinder. Larval mortality is noted daily at the end of the day. On Day D+3, the larvae are sampled and split up into two new dishes. On the day of their adult molt, the aphids that have reached the wingless adult stage are deposited successively onto a precision scale (d=0.01 mg) and the cumulative weights are recorded for each concentration of each tested molecule. Individual weights are calculated thereafter. The effects of a single molecule at all concentrations and the effects of the control medium are evaluated simultaneously during the same test. […]
structure (smiles),measurement,value
"O=C(/C=C/c1ccc(O)c(O)c1)O[C@@H]1C[C@](OC(=O)/C=C/c2ccc(O)c(O)c2)(C(=O)O)C[C@@H](O)[C@H]1O [1,5-diCQ, 1,5-dicaffeoylquinic acid]",cumulative mortality,greater than 50%
